# In the supplement of paper PMC10735217:
# Where a name gives a salt, the structure may show the parent alone. This is one part of the list. Repeats in this data set agree poorly, so a single value says little.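 In a drug-repurposing library screen, luminescence reads luciferase driven by eight TEAD-binding elements, stably integrated into human kidney-derived cells. Compounds scoring over five robust Z scores above the plate mean are called hits.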
# Test system: HEK293A TEAD-LUC reporter
# Test: TEAD-luciferase reporter activity (YAP activation), robust Z score vs plate; higher = stronger YAP/TEAD activation
# Settings: 24 h
Compound,TEAD-luciferase reporter activity (compound concentration: 200 nM),TEAD-luciferase reporter activity (compound concentration: 2 uM),TEAD-luciferase reporter activity (compound concentration: 10 uM)
O=C1NC(=O)C(c2ccccc2)(c2ccccc2)C(=O)N1,inactive: -1.03,inactive: 1.47,inactive: -0.667
CC(C)(N1CC1C#N)N1CC1C(N)=O (stereo not given) [azimexon],inactive: 0.552,inactive: -1.41,inactive: 1.09
COc1ccc(C(=O)N2CCCC2C(=O)N2CCC(N3CCCC3=O)CC2)cc1 (stereo not given),inactive: -0.979,–,inactive: 4.57
C=CCN1C[C@H](C)N(C(c2ccsc2)c2cccc(O)c2)C[C@H]1C (stereo not given in full),inactive: 1.75,inactive: -0.612,inactive: -0.807
O=C(NCc1ccncc1)c1cnc(Nc2cccc(Cl)c2)nc1C(F)(F)F,inactive: -0.312,inactive: -0.511,inactive: -0.0144
CC(C)(NC(=O)c1cc2c(n(CC3CCCCC3)c1=O)CCCCCC2)C(=O)N1CCC(NS(C)(=O)=O)C1 (stereo not given),inactive: -0.453,inactive: 0.197,inactive: 0.55
Cc1cccc(C(O)c2c[nH]cn2)c1C (stereo not given),inactive: 0.41,inactive: -0.836,inactive: 0.123
CCC(=O)C(CCN1CCOCC1)(c1ccccc1)c1ccccc1,inactive: -1.11,inactive: 0.389,inactive: -1.45
CC(C)CN/C(=N/C#N)c1cccnc1,inactive: 2.06,inactive: 4.46,inactive: -0.264
Fc1cccc(Br)c1NC1=NCCN1 [Romifidine hydrochloride],inactive: 0.915,inactive: 0.894,inactive: 1.27
"CC(C)N(CCC(C(N)=O)(c1ccccc1)c1ccccn1)C(C)C (stereo not given) [disopyramide SR, Ethypharm]",–,inactive: -2.25,–
CC(C)N(CCC(C(N)=O)(c1ccccc1)c1ccccn1)C(C)C (stereo not given),inactive: -1.01,–,inactive: -0.137
Cc1ccc2c(c1)[C@H]1CN(C)CC[C@H]1N2 [Stobadine],inactive: -0.461,inactive: -0.549,inactive: 1.37
O=c1[nH]c(=O)n(Cl)c(=O)n1Cl,inactive: -1.47,inactive: 1.51,inactive: -0.783
CCOC(=O)C1(c2ccccc2)CCC=CC1N(C)C (stereo not given) [tilidine],inactive: 1.1,inactive: -1.08,inactive: -0.544
COc1nc(C)ccc1CN1CC1C#N (stereo not given) [ciamexon],inactive: 1.32,inactive: -0.423,inactive: -1.5
COc1cccc2c(C(=O)N3CCN(C)C(C)C3)cn(CC3CCCCC3)c12 (stereo not given),inactive: 0.895,inactive: -2,inactive: 0.229
CCC(O)c1ccc(OCCNC(C)Cc2ccccc2)cc1 (stereo not given),inactive: -0.342,inactive: -0.23,inactive: 0.865
O=c1cc(C(F)(F)F)c2cc(Br)ccc2[nH]1,inactive: 1.89,inactive: -1.5,inactive: -1.43
COC(=O)N1CCN(C(=O)Cc2ccc(Cl)c(Cl)c2)C(CN2CCCC2)C1 (stereo not given),inactive: -0.952,inactive: -1.42,inactive: 1.93
FC(F)(F)c1nnc(N2CCNCC2)cc1-c1ccccc1,inactive: 2.02,inactive: 0.0905,inactive: 4.23

# Retrieved one by one from above:
Compound,TEAD-luciferase reporter activity (compound concentration: 200 nM),TEAD-luciferase reporter activity (compound concentration: 2 uM),TEAD-luciferase reporter activity (compound concentration: 10 uM)
COC(=O)N1CCN(C(=O)Cc2ccc(Cl)c(Cl)c2)C(CN2CCCC2)C1 (stereo not given),inactive: -0.952,inactive: -1.42,inactive: 1.93
Cc1ccc2c(c1)[C@H]1CN(C)CC[C@H]1N2 [Stobadine],inactive: -0.461,inactive: -0.549,inactive: 1.37
O=c1cc(C(F)(F)F)c2cc(Br)ccc2[nH]1,inactive: 1.89,inactive: -1.5,inactive: -1.43

# Next part:

Compound,TEAD-luciferase reporter activity (compound concentration: 200 nM),TEAD-luciferase reporter activity (compound concentration: 2 uM),TEAD-luciferase reporter activity (compound concentration: 10 uM)
CCNC1=Nc2ccc(Cl)cc2C(C)(c2ccccc2)O1 [(S)-etifoxine],inactive: -1.01,inactive: -0.919,inactive: 0.849
"O=[N+]([O-])O[C@@H]1CO[C@H]2[C@@H]1OC[C@@H]2O [isosorbide mononitrate, Hassle]",inactive: 4.05,inactive: 1.12,inactive: -0.574
NC(=O)CN1CC(O)CC1=O (stereo not given) [oxiracetam],inactive: -1.21,inactive: -0.203,inactive: 0.257
CC(=O)[C@H]1CCC2C3CC[C@H]4C[C@H](O)[C@@H](C)C[C@]4(C)C3CC[C@@]21C (stereo not given in full),inactive: -0.193,inactive: -0.198,inactive: 3.99
CC[C@@]1(O)C(=O)OCc2c1cc1n(c2=O)Cc2cc3ccccc3nc2-1 [camptothecin prodrug],–,inactive: -2.11,–
"CC[C@@]1(O)C(=O)OCc2c1cc1n(c2=O)Cc2cc3ccccc3nc2-1 [camptothecin prodrug, Mersana]",inactive: -1.51,–,inactive: -1.91
CC(=O)N(O)CCCP(=O)([O-])O,inactive: -0.51,inactive: -2.26,inactive: 3.28
CC12CCC(O)CC1=CCC1C2CCC2(C)C(O)CCC12 (stereo not given),inactive: -1.31,inactive: -0.375,inactive: 2.15
CCOC(OCC)P(=O)(O)CCCN,inactive: -0.601,inactive: -1.15,inactive: -0.272
O=C1c2ccccc2C(=O)N1CCCN1CC=C(c2c[nH]c3ccccc23)CC1,inactive: 0.251,inactive: -1.37,inactive: -0.154
c1cc([C@H]2CC[C@]3(CC2)OOC2(O3)C3CC4CC(C3)CC2C4)ccc1OCCN1CCOCC1 (stereo not given in full) [Artefenomel],inactive: 1.39,–,inactive: -0.0491
CN1C2CCC1C(C(=O)O)C(OC(=O)c1ccccc1)C2 (stereo not given),inactive: -0.29,inactive: 0.0318,inactive: 0.882
CC(C)(CO[N+](=O)[O-])C(=O)O,inactive: 3.71,inactive: -1.75,inactive: 0.809
FC(F)(F)c1cccc(C2CNCCO2)c1 (stereo not given) [Flumexadol],inactive: -1.38,inactive: -0.733,inactive: 0.531
O=C1c2ccccc2OC=C(Cl)N1CCCCN1CC=C(c2ccccn2)CC1,inactive: 0.172,inactive: -1.03,inactive: -1.32
COc1cc2c(cn1)C1NCCC1CC2 (stereo not given),inactive: 0.855,inactive: -0.0297,inactive: 3.64
CC(C)(NC(=O)c1cc2c(n(CC3CCCCC3)c1=O)CCCCCC2)C(=O)N1CC(NS(C)(=O)=O)C1,inactive: -0.854,inactive: 1.48,inactive: -1.1
CC(=O)C1CCC2C3CC[C@H]4CC(O)CCC4(C)C3[C@H](O)CC12C (stereo not given in full),inactive: 2.36,inactive: -0.52,inactive: -2.01
CNCC(C)c1ccccc1 (stereo not given),inactive: 0.82,inactive: 0.0794,inactive: 0.428
CCOC(=O)C1(c2ccccc2)CCN(CCC(O)c2ccccc2)CC1 (stereo not given),inactive: -0.982,inactive: -0.326,inactive: -1.61
Clc1ccc(Cl)c(-c2cc(Cl)c(Cl)cc2Cl)c1,inactive: 0.46,inactive: -0.298,inactive: 3.11

Compound,TEAD-luciferase reporter activity (compound concentration: 200 nM),TEAD-luciferase reporter activity (compound concentration: 2 uM),TEAD-luciferase reporter activity (compound concentration: 10 uM)
Cc1ccc(NC(=O)NC2N=C(c3ccccc3)c3ccccc3N(C)C2=O)c(C)c1 (stereo not given),inactive: -1.3,inactive: -1.85,inactive: -1.24
NNC(=O)CN1C(=O)CN=C(c2ccccc2)c2cc(Br)ccc21 [Gidazepam],inactive: 0.519,inactive: -0.391,inactive: -0.11
"CN(C)C1CCc2[nH]c3c(F)cc(F)cc3c2C1 (stereo not given) [3-(Dimethylamino)-6,8-difluoro-1,2,3,4-tetrahydrocarbazole]",inactive: -0.299,–,inactive: -0.132
CN(C)C1CCc2[nH]c3c(F)cc(F)cc3c2C1 (stereo not given) [Flucindole],–,inactive: -0.0561,–
C#C[C@]1(O)CC[C@H]2[C@@H]3CCC4=CC(=O)CCC4=C3C=C[C@@]21CC [Gestri],inactive: -1.74,–,inactive: 2.38
C#C[C@]1(O)CC[C@H]2[C@@H]3CCC4=CC(=O)CCC4=C3C=C[C@@]21CC [gestri],–,inactive: 0.879,–
O=C1CN=C(c2ccccc2F)c2cc(Cl)ccc2N1CC1CC1,inactive: -0.825,inactive: -2.19,inactive: 0.56
CN1C(=O)CN=C(c2ccccc2)c2cc(Cl)ccc21 [diazepam emulsion],–,inactive: -0.357,–
CN1C(=O)CN=C(c2ccccc2)c2cc(Cl)ccc21,inactive: 1.27,–,inactive: 1.28
COP(=O)(OC)C(O)C(Cl)(Cl)Cl (stereo not given) [metrifonate],inactive: -1.03,inactive: -0.384,inactive: 1.21
C=C(c1ccccc1OCc1cccc(Cl)c1)n1ccnc1 [croconazole],inactive: -1.4,inactive: 0.796,active: 5.53
CSCC[C@@H](C(N)=O)N(C)C(=O)[C@H](Cc1ccccc1)NC(=O)CNC(=O)[C@@H](C)NC(=O)[C@@H](N)Cc1ccc(O)cc1 [metkephamide],inactive: -1.45,inactive: 1.16,inactive: 0.733
C[C@]12CCC3C(CC[C@]4(O)C[C@@H](O)CC[C@]34C=O)[C@@]1(O)CC[C@@H]2C1=CC(=O)OC1 (stereo not given in full) [Strophanthidine],inactive: -1.41,inactive: 2.13,active: 20.8
Cc1cc2c(C(C)C)c(O)c(O)c(C=O)c2c(O)c1-c1c(C)cc2c(C(C)C)c(O)c(O)c(C=O)c2c1O [Gossypol],inactive: 0.527,–,inactive: -0.12
Cc1cc2c(C(C)C)c(O)c(O)c(C=O)c2c(O)c1-c1c(C)cc2c(C(C)C)c(O)c(O)c(C=O)c2c1O,–,inactive: -1.05,–
C[C@]12CC[C@H]3[C@@H](CCC4=C(O)C(=O)CC[C@@H]43)[C@@H]1CC[C@@H]2OC(=O)CCC1CCCC1,inactive: -0.036,inactive: -0.195,inactive: 2.42
C=CCc1ccccc1OC/C(CNC(C)C)=N/O,inactive: 0.0317,inactive: -0.622,inactive: -0.778
Oc1cc2c(cc1O)[C@H]1c3ccccc3CN[C@@H]1CC2 [Dihydrexidine],–,inactive: 1.06,–
Oc1cc2c(cc1O)[C@H]1c3ccccc3CN[C@@H]1CC2,inactive: -1.28,–,inactive: 1.46
